Measured values: patent publication US20230272086A1
Where a chain is given by its changes, count along the chain named. These are yes or no findings as the source states them, for the method shown. Binding calls can cover weak binding; strength is not graded here.

B1: GSK3772847 (antibody STLM208 in CN104411333, prepared in-house) (antibody, human IgG2, kappa, V domains shown)
VH: EVQLLESGGGLVQPGGSLRLSCAASGFTFSIYDMIWVRQAPGKGLEWVSSIRGEGGGTYYADSVKGRFTISRDNSKNTLYLQMNSLRAEDTAVYYCARDPWSTEGSFFVLDYWGQGTLVTVSS
VL: EIVLTQSPATLSLSPGERATLSCRASQSVDDDLAWYQQKPGQAPRLLIYDASNRATGIPARFSGSGSGTDFTLTISSLEPEDFAVYYCQQYITAPLTFGQGTKVEIKR
B2: Chimeric 31C8 (antibody, human IgG2, kappa, V domains shown)
VH: QVQLQQSGPELVRPGASVTLSCKASGYIFIDSEMHWVKQTPVHGLEWIGAIDPETGDTVYNQKFKGKATLTADKSSSTASMELSSLTSEDSAVYYCTGSTTDYYFAYWGQGTTLTVSS
VL: DIVMTQAAFSNPVTLGTSASISCRSSKSLLHSNGIIYLYWYLQKPGQSPQLLIYQMSNLASGVPDRFSSSGSGTDFTLRISRVEAEDVGVYYCAQNLELPFTFGSGTKLEIKR
B3: Humanized 31C8-1.1 (antibody, human IgG2, kappa, V domains shown)
VH: EVQLVQSGAEVKKPGATVKISCKASGYIFIDSEMHWVQQAPGKGLEWMGAIDPETGDTVYAEKFQGRVTITADKSSSTAYMELSSLRSEDTAVYYCTGSTTDYYFAYWGQGTLVTVSS
VL: DIQMTQSPSSLSASVGDRVTITCRSSKSLLHSNGIIYLYWYQQKPGKAPKLLIYQLSNLASGVPSRFSSSGSGTDFTLTISSLQPEDFATYYCAQNLELPFTFGQGTKVEIKR
B4: Humanized 31C8-1.2 (antibody, human IgG2, kappa, V domains shown)
VH: B3 VH with E1Q, E10K, E62K, Q65K
VL: B3 VL

target: ST2 (coated antigen of the cross-reactivity ELISA, Table 20) (human); test: ELISA, plate coated with ST2

binding	Binder
binds	B1
binds	B2
binds	B3
binds	B4
